# The structures given here were assigned with low confidence; some may be wrong.
# Tested on: 293T cells
# Assay: In vitro transfection efficiency, luciferase bioluminescence (Fluc-mRNA)
# Conditions: for transfection effects between two molar ratios: L-15 with L-49, L-27 with L-50, 35:16:46.5:2.5 versus 50:10:38:1.5
# Method: In order to investigate the mRNA transfection efficiency at the cellular level of each group of LNP-mRNA pharmaceutical compositions prepared in Example 47.1 of the present application, luciferase bioluminescence was used for testing. The LNP-mRNA pharmaceutical composition was dissolved in medium to prepare the required dose. 293T cells were used as the cell model, and cell suspensions of 100 µL/well were inoculated in a black-edged, clear-bottomed 96-well plate at a density of 6000 cells/well. After inoculation was completed, the cells were cultured in a cell culture incubator for 24 hours, and then the cells were dosed with 0.2 µg mRNA per well, while the blank control group was added with the corresponding dose of free Fluc-mRNA. After 24 hours of transfection, the old medium was replaced with fresh medium containing D-fluorescein sodium substrate (1.5 mg/mL). After 5 min of incubation, bioluminescence was detected using a microplate reader. The stronger the fluorescence, the more Fluc-mRNA is transported into the cytoplasm and translated the corresponding fluorescent protein. The results are shown in Table 2; wherein, the relative value of fluorescence intensity is the ratio of the fluorescence intensity of each group to the fluorescence intensity of the control group. […] The relative fluorescence values of the experimental groups L-1, L-3, L-15, L-16, L-19, L-26, L-27, L-28, L-30, L-32, and L-36 are higher. Meanwhile, there were differences in fluorescence intensity among the various experimental groups, which is probably due to the following variations in the cationic lipids: the type and/or number of degradable linking groups, and/or the type of hydrophobic hydrocarbon tail chain, and/or the degree of saturation of the hydrophobic hydrocarbon tail chain, and/or the carbon chain length between the linking group and the tertiary amine, and/or the number of ionizable tertiary amines. […]
SMILES,transfection effects between two molar ratios,"transfection efficiency (comparison in words) (comparing E1-1 (L-1), E17-1 (L-19) and E6-1 (L-6))"
CCCCCCCCCCCCOC(=O)CCN(CCC(=O)OCCCCCCCCCCCC)CC(=O)OCCOCCN1CCN(CCOCCOC(=O)CN(CCC(=O)OCCCCCCCCCCCC)CCC(=O)OCCCCCCCCCCCC)CC1,"comparable between two different molar ratios, or slightly better for the molar ratio of 35:16:46.5:2.5",–
CCCCC#CCCCOC(=O)CCCCCCCN(CCCCCCCC(=O)OCCCC#CCCCC)CC(=O)OCCN1CCN(CCOC(=O)CN(CCCCCCCC(=O)OCCCC#CCCCC)CCCCCCCC(=O)OCCCC#CCCCC)CC1,–,higher
CCCCCCCCCCC(O)CN(CC(=O)NCCOCCN1CCN(CCOCCNC(=O)CN(CC(O)CCCCCCCCCC)CC(O)CCCCCCCCCC)CC1)CC(O)CCCCCCCCCC (stereo not drawn),"comparable between two different molar ratios, or slightly better for the molar ratio of 35:16:46.5:2.5",–

# Source: EP4834888A1, “CATIONIC LIPID COMPRISING NITROGEN-CONTAINING HETEROCYCLE AND GLYCINE” (dated 2026)
